Earlier results, collected in patent publication US6344214B1, “Method for retarding and ameliorating fever blisters and canker sores” (priority 1999, dated 2002).
For at least one compound, name, drawing or mass did not settle the structure.

Test system: canker sores
Conditions: rinsing the mouth several times a day; cited from earlier work

CN(C)[C@@H]1C(O)=C(C(N)=O)C(=O)[C@@]2(O)C(O)=C3C(=O)c4c(O)cccc4[C@@](C)(O)[C@H]3C[C@@H]12 [tetracycline]
time to pain relief: 24 h
